Data published in PMC10835002.
No constants are given. Whether binding was seen depends on the method and setting. Binding seen in cells or lysates may run through a third protein. These calls come from enrichment with a bait or labelling near it, and not all partners need be listed. Tags and fused reporters may be left off the sequences shown.

The chains behind the UniProt entries cited, without tags or fusion partners. Residues count along the entry.
UniProt P25705, residues 44-553: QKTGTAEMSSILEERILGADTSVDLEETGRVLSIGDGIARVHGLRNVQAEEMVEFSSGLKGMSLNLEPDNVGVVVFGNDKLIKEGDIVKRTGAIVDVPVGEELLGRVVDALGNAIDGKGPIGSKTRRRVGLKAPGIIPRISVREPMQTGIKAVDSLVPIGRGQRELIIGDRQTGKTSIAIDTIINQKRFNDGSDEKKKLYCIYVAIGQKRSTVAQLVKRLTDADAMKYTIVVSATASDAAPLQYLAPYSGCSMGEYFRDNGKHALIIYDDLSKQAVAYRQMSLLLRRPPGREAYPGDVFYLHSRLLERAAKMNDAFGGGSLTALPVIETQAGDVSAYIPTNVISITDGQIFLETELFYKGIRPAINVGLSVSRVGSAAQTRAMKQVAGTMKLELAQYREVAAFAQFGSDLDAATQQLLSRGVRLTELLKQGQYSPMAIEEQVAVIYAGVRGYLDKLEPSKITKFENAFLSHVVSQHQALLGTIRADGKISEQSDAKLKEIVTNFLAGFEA
UniProt Q07065: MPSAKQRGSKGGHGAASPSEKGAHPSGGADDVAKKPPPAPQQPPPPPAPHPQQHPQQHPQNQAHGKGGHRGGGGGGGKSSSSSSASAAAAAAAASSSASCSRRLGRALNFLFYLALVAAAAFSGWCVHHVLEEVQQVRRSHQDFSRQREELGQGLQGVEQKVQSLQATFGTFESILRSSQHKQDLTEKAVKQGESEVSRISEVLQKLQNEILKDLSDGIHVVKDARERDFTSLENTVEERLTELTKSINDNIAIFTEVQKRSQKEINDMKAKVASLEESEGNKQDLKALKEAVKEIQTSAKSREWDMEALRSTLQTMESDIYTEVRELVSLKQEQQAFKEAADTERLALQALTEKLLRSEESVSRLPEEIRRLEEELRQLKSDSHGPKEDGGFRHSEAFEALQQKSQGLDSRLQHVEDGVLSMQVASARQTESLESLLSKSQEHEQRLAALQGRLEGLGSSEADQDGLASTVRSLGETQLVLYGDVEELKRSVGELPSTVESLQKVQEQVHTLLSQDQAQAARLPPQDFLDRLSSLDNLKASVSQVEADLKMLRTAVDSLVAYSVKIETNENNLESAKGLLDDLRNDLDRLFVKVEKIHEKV
UniProt Q969V5: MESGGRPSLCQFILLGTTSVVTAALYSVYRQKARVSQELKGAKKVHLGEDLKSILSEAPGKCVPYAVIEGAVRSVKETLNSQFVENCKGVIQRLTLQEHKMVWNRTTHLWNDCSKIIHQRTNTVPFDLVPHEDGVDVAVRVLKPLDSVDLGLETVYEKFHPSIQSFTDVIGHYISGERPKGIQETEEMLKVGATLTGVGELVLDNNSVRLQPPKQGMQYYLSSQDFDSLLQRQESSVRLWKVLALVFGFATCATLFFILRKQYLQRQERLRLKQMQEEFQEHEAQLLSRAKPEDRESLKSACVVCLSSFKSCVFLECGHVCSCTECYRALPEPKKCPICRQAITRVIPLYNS
UniProt O95292: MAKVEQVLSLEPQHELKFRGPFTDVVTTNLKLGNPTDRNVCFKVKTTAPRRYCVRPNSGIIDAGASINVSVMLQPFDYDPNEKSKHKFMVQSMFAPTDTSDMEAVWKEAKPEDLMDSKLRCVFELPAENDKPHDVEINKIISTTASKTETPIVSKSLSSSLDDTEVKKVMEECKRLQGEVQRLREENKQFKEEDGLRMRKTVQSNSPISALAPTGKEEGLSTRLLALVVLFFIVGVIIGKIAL
UniProt P04899: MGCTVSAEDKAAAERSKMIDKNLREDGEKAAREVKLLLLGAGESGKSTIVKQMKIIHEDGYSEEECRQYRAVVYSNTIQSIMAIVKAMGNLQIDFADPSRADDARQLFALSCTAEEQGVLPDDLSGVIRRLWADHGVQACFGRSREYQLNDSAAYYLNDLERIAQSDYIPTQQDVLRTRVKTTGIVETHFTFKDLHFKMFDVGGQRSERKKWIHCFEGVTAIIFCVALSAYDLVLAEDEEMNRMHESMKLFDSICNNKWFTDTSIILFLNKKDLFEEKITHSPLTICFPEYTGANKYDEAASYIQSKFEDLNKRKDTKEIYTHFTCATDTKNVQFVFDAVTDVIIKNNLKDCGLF
UniProt P49069: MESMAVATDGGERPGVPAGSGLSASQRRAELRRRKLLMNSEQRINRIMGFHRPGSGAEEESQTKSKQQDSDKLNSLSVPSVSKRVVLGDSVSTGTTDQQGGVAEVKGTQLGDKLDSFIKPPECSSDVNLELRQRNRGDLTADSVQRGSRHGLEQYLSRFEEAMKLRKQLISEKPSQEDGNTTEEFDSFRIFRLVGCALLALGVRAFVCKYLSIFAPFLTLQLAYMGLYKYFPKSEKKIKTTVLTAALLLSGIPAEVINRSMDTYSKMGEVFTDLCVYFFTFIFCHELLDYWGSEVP

T1: Flag-tagged basic leucine zipper and W2 domain-containing protein 2 (BZW2) (human) (UniProt Q9Y6E2)
T1 sequence: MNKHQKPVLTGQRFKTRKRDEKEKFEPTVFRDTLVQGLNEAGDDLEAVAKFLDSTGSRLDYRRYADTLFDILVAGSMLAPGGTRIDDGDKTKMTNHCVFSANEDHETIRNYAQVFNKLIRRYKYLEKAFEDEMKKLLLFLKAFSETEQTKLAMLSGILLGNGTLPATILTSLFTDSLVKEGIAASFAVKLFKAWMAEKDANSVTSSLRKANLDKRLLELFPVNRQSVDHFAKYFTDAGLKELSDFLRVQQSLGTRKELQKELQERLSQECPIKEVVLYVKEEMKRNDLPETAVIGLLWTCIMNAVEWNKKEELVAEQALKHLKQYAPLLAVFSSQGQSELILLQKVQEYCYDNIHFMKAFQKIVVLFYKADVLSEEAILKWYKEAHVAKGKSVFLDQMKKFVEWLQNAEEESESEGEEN

B1: PGRMC2 (protein, UniProt O15173 1-223)
chain: MAAGDGDVKLGTLGSGSESSNDGGSESPGDAGAAAEGGGWAAAALALLTGGGEMLLNVALVALVLLGAYRLWVRWGRRGLGAGAGAGEESPATSLPRMKKRDFSLEQLRQYDGSRNPRILLAVNGKVFDVTKGSKFYGPAGPYGIFAGRDASRGLATFCLDKDALRDEYDDLSDLNAVQMESVREWEMQFKEKYDYVGRLLKPGEEPSEYTDEEDTKDHNKQD
B2: RALA (protein, UniProt P11233 1-206)
chain: MAANKPKGQNSLALHKVIMVGSGGVGKSALTLQFMYDEFVEDYEPTKADSYRKKVVLDGEEVQIDILDTAGQEDYAAIRDNYFRSGEGFLCVFSITEMESFAATADFREQILRVKEDENVPFLLVGNKSDLEDKRQVSVEEAKNRAEQWNVNYVETSAKTRANVDKVFFDLMREIRARKMEDSKEKNGKKKRKSLAKRIRERCCIL
B3: PTPLAD1/HACD3 (protein, UniProt Q9P035 1-362)
chain: MENQVLTPHVYWAQRHRELYLRVELSDVQNPAISITENVLHFKAQGHGAKGDNVYEFHLEFLDLVKPEPVYKLTQRQVNITVQKKVSQWWERLTKQEKRPLFLAPDFDRWLDESDAEMELRAKEEERLNKLRLESEGSPETLTNLRKGYLFMYNLVQFLGFSWIFVNLTVRFCILGKESFYDTFHTVADMMYFCQMLAVVETINAAIGVTTSPVLPSLIQLLGRNFILFIIFGTMEEMQNKAVVFFVFYLWSAIEIFRYSFYMLTCIDMDWKVLTWLRYTLWIPLYPLGCLAEAVSVIQSIPIFNETGRFSFTLPYPVKIKVRFSFFLQIYLIMIFLGLYINFRHLYKQRRRRYGQKKKKIH
B4: BCAP31 (protein, UniProt P51572 1-246)
chain: MSLQWTAVATFLYAEVFVVLLLCIPFISPKRWQKIFKSRLVELLVSYGNTFFVVLIVILVLLVIDAVREIRKYDDVTEKVNLQNNPGAMEHFHMKLFRAQRNLYIAGFSLLLSFLLRRLVTLISQQATLLASNEAFKKQAESASEAAKKYMEENDQLKKGAAVDGGKLDVGNAEVKLEEENRSLKADLQKLKDELASTKQKLEKAENQVLAMRKQSEGLTKEYDRLLEEHAKLQAAVDGPMDKKEE
B5: SRPRB (protein, UniProt Q9Y5M8 1-271)
chain: MASADSRRVADGGGAGGTFQPYLDTLRQELQQTDPTLLSVVVAVLAVLLTLVFWKLIRSRRSSQRAVLLVGLCDSGKTLLFVRLLTGLYRDTQTSITDSCAVYRVNNNRGNSLTLIDLPGHESLRLQFLERFKSSARAIVFVVDSAAFQREVKDVAEFLYQVLIDSMGLKNTPSFLIACNKQDIAMAKSAKLIQQQLEKELNTLRVTRSAAPSTLDSSSTAPAQLGKKGKEFEFSQLPLKVEFLECSAKGGRGDVGSADIQDLEKWLAKIA
B6: AGK (protein, UniProt Q53H12 1-422)
chain: MTVFFKTLRNHWKKTTAGLCLLTWGGHWLYGKHCDNLLRRAACQEAQVFGNQLIPPNAQVKKATVFLNPAACKGKARTLFEKNAAPILHLSGMDVTIVKTDYEGQAKKLLELMENTDVIIVAGGDGTLQEVVTGVLRRTDEATFSKIPIGFIPLGETSSLSHTLFAESGNKVQHITDATLAIVKGETVPLDVLQIKGEKEQPVFAMTGLRWGSFRDAGVKVSKYWYLGPLKIKAAHFFSTLKEWPQTHQASISYTGPTERPPNEPEETPVQRPSLYRRILRRLASYWAQPQDALSQEVSPEVWKDVQLSTIELSITTRNNQLDPTSKEDFLNICIEPDTISKGDFITIGSRKVRNPKLHVEGTECLQASQCTLLIPEGAGGSFSIDSEEYEAMPVEVKLLPRKLQFFCDPRKREQMLTSPTQ
B7: PRDX1 (protein, UniProt Q06830 1-199)
chain: MSSGNAKIGHPAPNFKATAVMPDGQFKDISLSDYKGKYVVFFFYPLDFTFVCPTEIIAFSDRAEEFKKLNCQVIGASVDSHFCHLAWVNTPKKQGGLGPMNIPLVSDPKRTIAQDYGVLKADEGISFRGLFIIDDKGILRQITVNDLPVGRSVDETLRLVQAFQFTDKHGEVCPAGWKPGSDTIKPDVQKSKEYFSKQK
B8: SLC25A6/ANT3 (protein, UniProt P12236 1-298)
chain: MTEQAISFAKDFLAGGIAAAISKTAVAPIERVKLLLQVQHASKQIAADKQYKGIVDCIVRIPKEQGVLSFWRGNLANVIRYFPTQALNFAFKDKYKQIFLGGVDKHTQFWRYFAGNLASGGAAGATSLCFVYPLDFARTRLAADVGKSGTEREFRGLGDCLVKITKSDGIRGLYQGFSVSVQGIIIYRAAYFGVYDTAKGMLPDPKNTHIVVSWMIAQTVTAVAGVVSYPFDTVRRRMMMQSGRKGADIMYTGTVDCWRKIFRDEGGKAFFKGAWSNVLRGMGGAFVLVLYDELKKVI
B9: SLC16A1/MCT1 (protein, UniProt P53985 1-500)
chain: MPPAVGGPVGYTPPDGGWGWAVVIGAFISIGFSYAFPKSITVFFKEIEGIFHATTSEVSWISSIMLAVMYGGGPISSILVNKYGSRIVMIVGGCLSGCGLIAASFCNTVQQLYVCIGVIGGLGLAFNLNPALTMIGKYFYKRRPLANGLAMAGSPVFLCTLAPLNQVFFGIFGWRGSFLILGGLLLNCCVAGALMRPIGPKPTKAGKDKSKASLEKAGKSGVKKDLHDANTDLIGRHPKQEKRSVFQTINQFLDLTLFTHRGFLLYLSGNVIMFFGLFAPLVFLSSYGKSQHYSSEKSAFLLSILAFVDMVARPSMGLVANTKPIRPRIQYFFAASVVANGVCHMLAPLSTTYVGFCVYAGFFGFAFGWLSSVLFETLMDLVGPQRFSSAVGLVTIVECCPVLLGPPLLGRLNDMYGDYKYTYWACGVVLIISGIYLFIGMGINYRLLAKEQKANEQKKESKEEETSIDVAGKPNEVTKAAESPDQKDTDGGPKEEESPV
B10: MBOAT7 (protein, UniProt Q96N66 1-472)
chain: MSPEEWTYLVVLLISIPIGFLFKKAGPGLKRWGAAAVGLGLTLFTCGPHTLHSLVTILGTWALIQAQPCSCHALALAWTFSYLLFFRALSLLGLPTPTPFTNAVQLLLTLKLVSLASEVQDLHLAQRKEMASGFSKGPTLGLLPDVPSLMETLSYSYCYVGIMTGPFFRYRTYLDWLEQPFPGAVPSLRPLLRRAWPAPLFGLLFLLSSHLFPLEAVREDAFYARPLPARLFYMIPVFFAFRMRFYVAWIAAECGCIAAGFGAYPVAAKARAGGGPTLQCPPPSSPEKAASLEYDYETIRNIDCYSTDFCVRVRDGMRYWNMTVQWWLAQYIYKSAPARSYVLRSAWTMLLSAYWHGLHPGYYLSFLTIPLCLAAEGRLESALRGRLSPGGQKAWDWVHWFLKMRAYDYMCMGFVLLSLADTLRYWASIYFCIHFLALAALGLGLALGGGSPSRRKAASQPTSLAPEKLREE
B11: SLC25A3/PiC2 (protein, UniProt Q00325 50-362)
chain: AVEEQYSCDYGSGRFFILCGLGGIISCGTTHTALVPLDLVKCRMQVDPQKYKGIFNGFSVTLKEDGVRGLAKGWAPTFLGYSMQGLCKFGFYEVFKVLYSNMLGEENTYLWRTSLYLAASASAEFFADIALAPMEAAKVRIQTQPGYANTLRDAAPKMYKEEGLKAFYKGVAPLWMRQIPYTMMKFACFERTVEALYKFVVPKPRSECSKPEQLVVTFVAGYIAGVFCAIVSHPADSVVSVLNKEKGSSASLVLKRLGFKGVWKGLFARIIMIGTLTALQWFIYDSVKVYFRLPRPPPPEMPESLKKKLGLTQ
B12: TMEM43 (protein, UniProt Q9BTV4 1-400)
chain: MAANYSSTSTRREHVKVKTSSQPGFLERLSETSGGMFVGLMAFLLSFYLIFTNEGRALKTATSLAEGLSLVVSPDSIHSVAPENEGRLVHIIGALRTSKLLSDPNYGVHLPAVKLRRHVEMYQWVETEESREYTEDGQVKKETRYSYNTEWRSEIINSKNFDREIGHKNPSAMAVESFMATAPFVQIGRFFLSSGLIDKVDNFKSLSLSKLEDPHVDIIRRGDFFYHSENPKYPEVGDLRVSFSYAGLSGDDPDLGPAHVVTVIARQRGDQLVPFSTKSGDTLLLLHHGDFSAEEVFHRELRSNSMKTWGLRAAGWMAMFMGLNLMTRILYTLVDWFPVFRDLVNIGLKAFAFCVATSLTLLTVAAGWLFYRPLWALLIAGLALVPILVARTRVPAKKLE

target: T1, Flag-tagged basic leucine zipper and W2 domain-containing protein 2 (BZW2) (human); test: affinity purification with mass spectrometry; SILAC, two forward and two reverse replicates; HEK293 stably expressing Flag-tagged BZW2 against tag-free BZW2 as control; anti-FLAG M2 affinity gel, washed 3x with NP40 wash buffer (0.2% NP40, 25 mM Tris-HCl pH 7.4, 150 mM NaCl); hits: H/L >= 4.0 forward and <= 0.4 reverse in at least three of four replicates

binding, binds:
ATP5A1 (from UniProt P25705 44-553)
CKAP4 (from UniProt Q07065 1-602)
MUL1 (from UniProt Q969V5 1-352)
VAPB (from UniProt O95292 1-243)
GNAI2 (from UniProt P04899 1-355)
CAMLG (from UniProt P49069 1-296)
TMPO/LAP2 (human (endogenous in HEK293))
BSG (from UniProt P35613-2)
B1
B2
B3
B4
B5
B6
B7
B8
B9
B10
B11
B12
